Data taken from paper PMC10163288.
The list shows a part of the results.

B1: il10ra_site1_normal_mot_HHH_b1_05056_000000217_0001_1_20_H_._HHH_b1_07876_0001_0000200010_0000001_0 (protein)
chain: SSSSSSDEEEEVEELLEEAKHIEDPRERTEVLLEALRVALQLGDPKLLQLVWRVVKRLSSSSSSS
B2: il10ra_site1_sap_26_mot_HHH_b2_00984_000000042_0001_1_20_H_._HHH_b2_00952_0001_0000300030_0000002_0_0001 (protein)
chain: SSSSSSEEELREEVEELLEEAKQITDRRERFKVLLRALRLAIQGNDPELLQRVWKVLKELSSSSS
B3: il10ra_site1_sap_21_mot_HHH_b1_07100_000000193_0001_1_18_H_._678a1b28e3afbd0e6d42a78f97d9d1d3_0001_0001_0000400019_0000001_0_0001_af2pred_0001 (protein)
chain: SRIALLAILYALERGNPEAAERTARHLLRLLEREGDPRAELLEEVEELVKRDEEKAKELLEEILK
B4: il10ra_site1_sap_20_mot_HHH_b2_07873_af2_000000172_0001_1_19_H_._HHH_b2_08048_af2_0001_0000100001_0000001_0_0001 (protein)
chain: SSSSSNEAVELLREVVELMAEGNPEEAEKLIEEAEKVAEEEGSDVIKWQLEYIKKHIENSSSSSS
B5: il10ra_site1_normal_mot_HHH_b2_05813_000000266_0001_1_19_H_._HHH_b1_04335_0001_0000200017_0000002_0_af2pred_0001 (protein)
chain: SSSSSEEEQRFAQEVTVRVARLLQRGNPEEARELLEEAIEEAKELGNRKAKKHLEHLLKLLSSSS
B6: il10ra_site1_sap_8_mot_HHH_b2_00943_af2_000000149_0001_1_17_H_._HHH_b2_01442_af2_0001_0000100007_0000001_0_0001 (protein)
chain: SSSSFISEFSVKAVERAVKELLKRGDRERAEFLIRRALEILREMGDEEAVEELEELLEEVTSSSS
B7: il10ra_site1_normal_mot_HEEHE_3255_000000102_0001_40_55_H_._HHH_b1_05364_af2_0001_0001400095_0000001_0 (protein)
chain: SSSSDEELRKFVEELVEEFNLSEDVRNLLEIQVESLLELGFSEEEIKKRLEEAAKLIARQQSSSS
B8: il10ra_site1_normal_mot_HHH_b2_06786_000000018_0001_41_57_H_._HHH_b2_03897_af2_0001_0000400013_0000001_0 (protein)
chain: SSSSSEEERLKELEEELREALERGDTELAAELLIEALRLAIRLSDPEFLHELWKLFKRNISSSSS
B9: il10ra_site1_normal_mot_HHH_b2_06979_000000158_0001_42_57_H_._HHH_b1_05868_0001_0000200019_0000001_0 (protein)
chain: SSSSTEEAQLVHELAREAIELFRSGNPEEAQEVLEELLRLLEELGNRLLVINVEFLLRDLRSSSS
B10: il10ra_site1_sap_21_mot_HHH_b2_00230_000000227_0001_1_19_H_._HHH_b2_02666_0001_0000200015_0000002_0_0001 (protein)
chain: SSSSNEEYYIELLVEAAEVLAKNVDDPEEREELERLAEELEREGDPRLFHELSHLVSKIHLSSSS
B11: il10ra_site1_sap_30_mot_9c3e5e2d2b9ffb70dc788f52fbfab6d5_0001_1_000000198_0001_1_14_H_._HHH_b1_03906_af2_0001_0000700020_0000001_0_0001_af2pred_0001 (protein)
chain: SSSSSTEEQVERLVRVALELAKLLEDPRFVELAIRSARLVAEENNDEEAERLVEEFAEELSSSSS
B12: il10ra_site1_normal_mot_HHH_b1_00999_000000080_0001_41_55_H_._HHH_b2_04674_0001_0000200014_0000002_0 (protein)
chain: SSSSDEEERQLKELLEELKELVEEGDEERFLRVLQELIRLAFRNSDAEVLRILWELARELGSSSS
B13: il10ra_site1_normal_mot_ems_3hM_2400_000000184_0001_1_19_H_._HHH_b2_03037_0001_0000200010_0000001_0 (protein)
chain: SSSSDEEEEEEVREILEEAKHIEDEHELAQVLFEAFRRAWEIRDPEAVQLVIRVAARLNDSSSSS
B14: il10ra_site1_normal_mot_HHH_b2_06786_000000018_0001_41_57_H_._HHH_b1_04520_0001_0000400026_0000002_0 (protein)
chain: SSSSDAQRIAAKAARLAFRLNDPELLQEVWRLFKEIIETDDPRLEEELEELLEEIERLLKSSSSS
B15: il10ra_site1_normal_mot_HHH_b2_00984_000000042_0001_1_20_H_._HHH_b1_07795_af2_0001_0000100004_0000001_1 (protein)
chain: SSSSDLEEEVEELLRELEELLKRNDREEFIEVAQEASRLALEAGNAELLQEIWELIRKLRSSSSS
B16: il10ra_site1_sap_14_mot_HHH_b2_08265_af2_000000206_0001_22_38_H_._HHH_b1_01778_0001_0000100006_0000001_0_0001 (protein)
chain: SSSSSETQRIFELIKEAMELHSDGNPEEAEELVEEALELAEQNNNRLFAWQARFVLKEVRSSSSS
B17: il10ra_site1_normal_mot_HHH_b1_07835_af2_000000063_0001_1_16_H_._HHH_b2_02304_0001_0000100010_0000001_1_af2pred_0001 (protein)
chain: SSSSDEEIRERIEELLEEAKHIEDEHEVAELLAEASRLAYELRDPELARLVDKVAIELNLSSSSS
B18: il10ra_site1_normal_mot_65b8060e20531850bca9f2e11f97d954_0001_af2_000000137_0001_17_31_H_._HHH_b1_08628_0001_0000100002_0000001_0 (protein)
chain: SSSDEEQRASELFVRASRLIEEGDDEEARKLLEELRELVEEIGDPKLRISVRFLEALLRSASSSS
B19: il10ra_site1_sap_21_mot_HHH_b2_03183_af2_000000055_0001_40_56_H_._HHH_b1_01074_0001_0000100001_0000003_1_0001 (protein)
chain: SSSSDEETQELFELSREAVELDLEGNPEEARRVLEEAEELAKELGNRLFLWQLEWLLEVVNSSSS
B20: il10ra_site1_sap_24_mot_HHH_b2_05323_000000159_0001_1_18_H_._HHH_b2_02221_af2_0001_0000400020_0000001_0_0001 (protein)
chain: SSSSSSDEILKLAVEALRLAFQKNDPEALRAVWKLVRRYHEEGDERYREELEELLEELSSSSSSS
B21: il10ra_site1_sap_14_mot_HHH_b2_05984_000000071_0001_38_52_H_._HHH_b1_04566_0001_0000400036_0000002_0_0001 (protein)
chain: SSSSSDEQELIELIMRVAHLLIRNDEEHLRELLKEALEIAEELGDERAVEMLEELLKLVGSSSSS
B22: il10ra_site1_sap_16_mot_HHH_b2_06857_af2_000000179_0001_42_54_H_._HHH_b1_05051_af2_0001_0000700017_0000001_0_0001 (protein)
chain: SSSSDEDERYLRLALRFLEWLIKQGDEESARRMIRAIEDLAERAKDEEVKELVEELREELESSSS
B23: il10ra_site1_sap_18_mot_eac4c1c76330803482ec69faa85739af_0001_000000225_0001_18_35_H_._626a6266371e825a8c4874df495abcf9_0001_1_0001_0000300013_0000001_0_0001 (protein)
chain: SSSSDEETERAIKLLREAIELLSDGDPEEAREVAEEAQEVAEEAGNPLVAWQIEFLLERISSSSS
B24: il10ra_site1_normal_mot_HHH_b2_08186_000000021_0001_43_56_H_._HHH_b1_08296_af2_0001_0000500011_0000001_0 (protein)
chain: SSSSSEEEEEIERLQEELRELAEKGDDERFLRVYQRILQLVYRLGDAELLRELWELLRKRQSSSS
B25: il10ra_site1_sap_16_mot_HHH_b1_02397_af2_000000085_0001_39_57_H_._HHH_b1_00346_af2_0001_0000100014_0000001_0_0001_af2pred_0001 (protein)
chain: SSSSSYEERIRELLEEAERAAEEGDERLVAELLAKALRLAYENNDPELAREVDKVAAELLGSSSS
B26: il10ra_site1_normal_mot_HHH_b1_02809_af2_000000277_0001_40_57_H_._HHH_b2_04730_af2_0001_0000100007_0000001_0_af2pred_0001 (protein)
chain: SSSSDEEEKQVRRLLRAAEFAEEQGDERAAKILLRLALLLARLLNNEELVEEVERLLEELSSSSS
B27: il10ra_site1_sap_20_mot_HHH_b1_07100_000000193_0001_1_18_H_._HHH_b2_05849_0001_0000400035_0000001_0_0001_af2pred_0001 (protein)
chain: SSSSSERLELTIKFIEFLLEQGDPEAAKRLARAAAQIAKKDGDEELLRRIEELLEEAEELLSSSS
B28: il10ra_site1_normal_mot_HHH_b1_05357_000000034_0001_23_39_H_._HHH_b2_01639_0001_0000100002_0000001_0_af2pred_0001 (protein)
chain: SSSSSSDSEEEVEELLEEAKQIEDRQELAYVLIRAFAIANQANDPELKELVEKVAIKLSSSSSSS
B29: il10ra_site1_normal_mot_HHH_b1_06256_000000091_0001_42_58_H_._HHH_b2_07403_0001_0000100008_0000001_0_af2pred_0001 (protein)
chain: SSSSTEERVARLLFEALELLANGNPEEAEELVEEAKRLAEELNDPELERAVEILERFVKLLSSSS
B30: il10ra_site1_sap_18_mot_HHH_b2_01760_000000115_0001_41_54_H_._HHH_b2_03943_0001_0000300040_0000001_0_0001 (protein)
chain: SSSSSDEEVQEEVEELLEEAKHIEDERELSRVLQEATHLALRLGDAELLRLVWRVVKELGSSSSS
B31: il10ra_site1_sap_13_mot_cb37e3bbdb9b21896581229d2f79fce4_0001_1_af2_000000054_0001_15_28_H_._0c3bf8cb9d93094680b22e24baf1e485_0001_af2_0001_0000300022_0000001_0 … (protein)
chain: SSSSDDERREVYELVRRVIELHHEGNPEEAREVLREAKELAEEIGSDVLRMVIEYLEKQLSSSSS
B32: il10ra_site1_normal_mot_HHH_b1_06348_000000162_0001_1_15_H_._HHH_b1_01821_0001_0000100007_0000001_0 (protein)
chain: SSSSDEEDHELYRLSRKIAELLAQGDREEARELLEEAERLAEEANNELIRFALEILERAINSSSS
B33: il10ra_site1_normal_mot_HHH_b2_00277_af2_000000172_0001_1_17_H_._HHH_b2_02426_0001_0000100002_0000001_0_af2pred_0001 (protein)
chain: SSSSSSDEEEVQELLEEARKIEDREEVAYLLIRAFALATERRDPELEELVRRVAKEIISSSSSSS
B34: il10ra_site1_sap_15_mot_HHH_b2_00800_af2_000000047_0001_1_20_H_._HHH_b1_06628_af2_0001_0000100001_0000001_0_0001 (protein)
chain: DIVELIEEALEEGDPDLLYRLLKELAEEAAEKNDPRLLRVVTLLSRAVLARDPELLKEAEERLKE
B35: il10ra_site1_sap_20_mot_HHH_b1_05021_af2_000000167_0001_42_56_H_._HHH_b1_06778_0001_0000100002_0000001_0_0001 (protein)
chain: SSSDEAFELLREAFEELKELAEEGDEEEFRRLTERVKEELEELGNRLAAWVLENAAKLLLRSSSS
B36: il10ra_site1_normal_mot_HHH_b2_08186_000000021_0001_43_56_H_._HHH_b2_01518_af2_0001_0000300023_0000001_0 (protein)
chain: SSSSSDEEEERVEELLEEAREIEDREKVRRILMEALQIAQELSNPELLKLVWEVLKELAGSSSSS
B37: il10ra_site1_sap_24_mot_HHH_b1_07380_000000129_0001_1_20_H_._HHH_b1_06010_af2_0001_0000100008_0000001_0_0001_af2pred_0001 (protein)
chain: SSSSDDQKKIELTLRFARWLLEQGDEEAVRFFLEAARQLAERAGDPELQRLVEEFEEELKSSSSS

biological target: il10ra, Q13651; test: yeast display titration

Apparent Kd, inactive:
B1 no binding seen
B2 no binding seen
B3 no binding seen
B4 no binding seen
B5 no binding seen
B6 no binding seen
B7 no binding seen
B8 no binding seen
B9 no binding seen
B10 no binding seen
B11 no binding seen
B12 > 921 nM
B13 no binding seen
B14 no binding seen
B15 no binding seen
B16 no binding seen
B17 no binding seen
B18 no binding seen
B19 no binding seen
B20 no binding seen
B21 no binding seen
B22 no binding seen
B23 no binding seen
B24 no binding seen
B25 no binding seen
B26 no binding seen
B27 no binding seen
B28 no binding seen
B29 no binding seen
B30 no binding seen
B31 no binding seen
B32 no binding seen
B33 no binding seen
B34 no binding seen
B35 no binding seen
B36 no binding seen
B37 no binding seen

2 entries picked at random from those above, as already listed:
Apparent Kd, inactive:
B8 no binding seen
B30 no binding seen
